{
  "source": "paper doi:10.1101/2021.12.15.472781",
  "binders": {"B1": {"name": "GAPB (plastidial GAPDH isoform B), endogenous in Arabidopsis seedlings (enzyme, UniProt P25857 81-447)", "chain": "KLKVAINGFGRIGRNFLRCWHGRKDSPLEVVVLNDSGGVKNASHLLKYDSMLGTFKAEVKIVDNETISVDGKLIKVVSNRDPLKLPWAELGIDIVIEGTGVFVDGPGAGKHIQAGASKVIITAPAKGADIPTYVMGVNEQDYGHDVANIISNASCTTNCLAPFAKVLDEEFGIVKGTMTTTHSYTGDQRLLDASHRDLRRARAAALNIVPTSTGAAKAVSLVLPQLKGKLNGIALRVPTPNVSVVDLVINVEKKGLTAEDVNEAFRKAANGPMKGILDVCDAPLVSVDFRCSDVSTTIDSSLTMVMGDDMVKVVAWYDNEWGYSQRVVDLAHLVASKWPGAEAVGSGDPLEDFCKTNPADEECKVYD"}, "B2": {"name": "tAPX (thylakoidal isoform of ascorbate peroxidase), endogenous in Arabidopsis seedlings (enzyme, UniProt Q42593 79-426)", "chain": "AASDAAQLISAKEDIKVLLRTKFCHPILVRLGWHDAGTYNKNIEEWPLRGGANGSLRFEAELKHAANAGLLNALKLIQPLKDKYPNISYADLFQLASATAIEEAGGPDIPMKYGRVDVVAPEQCPEEGRLPDAGPPSPADHLRDVFYRMGLDDKEIVALSGAHTLGRARPDRSGWGKPETKYTKTGPGEAGGQSWTVKWLKFDNSYFKDIKEKRDDDLLVLPTDAALFEDPSFKNYAEKYAEDVAAFFKDYAEAHAKLSNLGAKFDPPEGIVIENVPEKFVAAKYSTGKKELSDSMKKKIRAEYEAIGGSPDKPLPTNYFLNIIIAIGVLVLLSTLFGGNNNSDFSGF"}},
  "key": {"[1]": {"target": "VIR3-FLAG in stably transformed Arabidopsis vir3-1/pUBQ::VIR3-FLAG seedlings (Arabidopsis)", "experiment": "co-IP"}, "[2]": {"target": "VIR3^H239Y-FLAG in stably transformed Arabidopsis vir3-1/pUBQ::VIR3^H239Y-FLAG seedlings (Arabidopsis)", "experiment": "co-IP"}},
  "note": "Results are given in words; binding and its absence hold for the method and conditions named. In cells and extracts the contact can be indirect. A result given as binding can be weak or reduced; the word gives no strength.",
  "data": [
    {"binder": "B1", "values": [
      {"measurement": "binding", "setting": "[1]", "value": "binds"},
      {"measurement": "binding", "setting": "[2]", "value": "binds"}
    ]},
    {"binder": "B2", "values": [
      {"measurement": "binding", "setting": "[1]", "value": "binds"},
      {"measurement": "binding", "setting": "[2]", "value": "binds"}
    ]}
  ]
}
